Measurements: patent US20150352094A1, “USE OF FATTY ACID NIACIN CONJUGATES FOR TREATING DISEASES” (CATABASIS PHARMACEUTICALS, INC., priority 2013, published 2015)

Test system: female APOE*3Leiden mice
Experiment: Plasma cholesterol and triglycerides in APOE*3Leiden mice on high cholesterol Western type diet
Format: in vivo
Settings: I-8 0.75% w/w in diet, atorvastatin 0.0015% w/w in diet
Method: The study was conducted using female APOE*3Leiden mice (groups of each n=10) and one untreated reference control group on chow (n=5). To induce dyslipidemia, a high cholesterol Western type diet containing 1% cholesterol, 15% cacao butter, 40.5% sucrose and 1% corn oil (WTD) was fed to the mice for a total experimental period of 20 weeks (of which 4 weeks are a run-in period). To prevent oxidation of the test compound (I-8), 30 mg/kg alpha-tocopherol was added to the high cholesterol diets, i.e. also in the high cholesterol diet control.
In the first 4 weeks (run-in period), a pro-atherogenic state of dyslipidemia characterized by elevated plasma cholesterol levels (about 15-20 mM) was induced in all mice by feeding them an atherogenic diet containing 1% cholesterol. The mice were then separated into a control group (no treatment) and three treatment groups: i) compound I-8, ii) atorvastatin and iii) compound I-8+atorvastatin as described below. The dyslipidemic mice were grouped on the basis of plasma cholesterol at t=0 assayed in 4 h fasting blood. Mice with low cholesterol after the run-in period were excluded so that homogenous experimental groups were obtained. A group of reference mice (n=5) remained on a chow diet during the complete study period (normolipidemic reference mice).
The doses of the test compounds were as follows: • Compound I-8: 0.75% w/w in diet. • Atorvastatin: 0.0015% w/w in diet (to achieve about 20% reduction in plasma cholesterol). • Alpha-tocopherol: 0.0030% w/w in diet
The test compounds, sufficient for approx. 3 kg of diet (i.e. 25 g of compound I-8), and alpha-tocopherol (>200 mg) were formulated before the start of the treatment period (t=0), by adding the test compounds to melted, hand warm cocoa butter and mixed for 5 min. This mix was then added to the master mix (containing the rest of the ingredients) and mixed thoroughly. The diet was frozen to −20° C. On the subsequent day, the diet was broken into small pellets (approx 5 g per piece) and freeze dried, and stored in vacuum sealed bags (approx 500 g) at −20° C. until use. […]

CC(C)c1c(C(=O)Nc2ccccc2)c(-c2ccccc2)c(-c2ccc(F)cc2)n1CC[C@@H](O)C[C@@H](O)CC(=O)O [atorvastatin, reference compound]
plasma cholesterol (after 4 weeks of treatment): Comparable level of cholesterol reduction | plasma triglycerides (after 4 weeks of treatment): failed to show a statistically significant change | plasma cholesterol (t=2 weeks of treatment): statistically significant reduction
